# According to PubChem BioAssay AID2685 (National Center for Advancing Translational Sciences (NCATS), 2010):
# Some of the results follow. Shown are side measurements of this screen, not its main read-out; they come without a call. The list favours compounds with an active or inconclusive main result. Potencies come from curve fits of mixed quality, noted in brackets.
# Experiment: qHTS Assay for Lipid Storage Modulators in Drosophila S3 Cells;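 on cell number change: cells counted by Cell Tracker Red CMTPX staining in the red channel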
# Details: BODIPY lipid droplet fluorescence, 18-24 h; for cell number change: measured here: cell count max response, cells fed with added oleic acid
# Outline: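 Laser-scanning cytometry quantifies lipid droplet accumulation (500–530 nm total intensity; droplet/cell object ratio) in oleic acid-fed (400 uM added) Drosophila S3 cells treated with a concentration series. 20 uM Triacsin C defined 100% inhibition.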
# [1] = measured here: lipid fluorescence (Fed channel) AC50, cells fed with added oleic acid
# [2] = measured here: cell number channel AC50, cells fed with added oleic acid
SMILES,cell number change [%],AC50 [1],AC50 [2]
COc1ccc(N2CC(C(=O)Nc3nc4ccc(F)cc4s3)CC2=O)c(OC)c1 (stereo unspecified),11.5,"6.31 µM [rising, single point]",–
Cc1ccc2c(c1)Sc1ccccc1CC2=O,20.6,"16.4 µM [rising, single point]",–
COC(=O)c1c(NC(=O)C2c3ccccc3Oc3ccccc32)sc(C)c1C,193,–,"29.1 µM [rising, single point]"
CCc1ccc(/C=N/NC(=O)c2cc(C3CC3)nc3ccc(Br)cc23)s1,–,"2.31 µM [rising, partial curve]","0.411 µM [rising, full curve]"
COc1ccc(-c2nnc(SCC(=O)Nc3ncc(C)s3)n2-c2ccccc2)cc1OC,17.7,"16.4 µM [rising, partial curve]",–
COc1ccc(/C=N/NC(=O)Cn2cnc3c2c(=O)n(C)c(=O)n3C)c(OC)c1OC,-14.1,"0.146 µM [falling, full curve, poor fit]",–
Cc1ccc(NC2=C([N+](=O)[O-])CS(=O)(=O)C2)cc1,35.1,–,"0.184 µM [rising, full curve]"
COc1cc(S(=O)(=O)NCC2CCCO2)c(OC)cc1Cl (stereo unspecified),0.651,–,"0.092 µM [falling, full curve, poor fit]"
CC(C)(C)c1ccc(C(CC(=O)O)NC(=O)C23CC4CC(CC(C4)C2)C3)cc1 (stereo unspecified),-12.4,–,–
COc1ccccc1/C=C1\SC(=O)N(CC(=O)NCCCn2ccnc2)C1=O,-7.63,"29.1 µM [falling, single point]",–
COCC1CCCCN1C(=O)c1cc(COc2ccc3ncccc3c2)on1 (stereo unspecified),-92.7,"1.16 µM [falling, full curve]","11.6 µM [falling, partial curve]"
COC(=O)C1=C(C)N(Cc2ccccc2)C(=NCCc2ccccn2)N[C@H]1c1cccc(F)c1,-1.29,–,–
CCc1ccccc1NS(=O)(=O)c1cc(C)ccc1OC,-3.64,"10.3 µM [rising, partial curve]",–
O=C(Nc1ccccc1Cl)c1cnccn1,-0.597,–,–
CCOc1ccc(S(=O)(=O)N(CCO)CCO)cc1-c1nc2c(C(C)(C)C)nn(C)c2c(=O)[nH]1,35.3,–,"14.6 µM [rising, single point]"
Cc1cc(N2CCOCC2)nc(SCc2c(Cl)cccc2Cl)n1,9.52,–,–
COc1ccccc1/C=C/C1=NC(=C\N(C)C)/C(=O)O1,–,–,"0.058 µM [rising, full curve, poor fit]"
CCSc1nnc(-c2c[nH]c3ccccc23)o1,47.7,"1.46 µM [rising, partial curve]","0.259 µM [rising, full curve]"

SMILES,cell number change [%],AC50 [1],AC50 [2]
COc1ccc([C@@H]2C[C@@H](c3ccccc3)Oc3cc(OC)cc(OC)c32)cc1,13.2,–,–
Cc1ccc(C(=O)NN2C(=O)C3C4C=CC([C@@H]3C2=O)C42CC2)cc1 (stereo partly specified),-9.52,"2.31 µM [rising, single point]","2.31 µM [falling, single point]"
O=C(Cc1ccc([N+](=O)[O-])cc1)Nc1ccc2c(c1)CCC2,13,"29.1 µM [falling, single point]",–
CCC1=C(C(=O)OC)C(c2cc(OC)ccc2OC)C(C#N)=C(N)O1 (stereo unspecified),–,"2.31 µM [rising, partial curve]",–
Cc1ccc(C(=O)N2CCCC(Nc3ccc(F)c(F)c3)C2)cn1 (stereo unspecified),2.55,"6.51 µM [rising, single point]",–
CC1(C)CC(=O)C(C2c3ccccc3S(=O)(=O)c3ccccc32)C(=O)C1,-25.2,"0.146 µM [falling, full curve, poor fit]","0.13 µM [falling, full curve, poor fit]"
COc1ccc(Br)cc1S(=O)(=O)N1CCN=C1c1ccccc1,1.7,"0.58 µM [falling, single point]",–
Cc1cc(C)c(C)c(S(=O)(=O)NC(C(=O)NCCc2ccco2)C(C)C)c1C (stereo unspecified),-13.3,"0.0058 µM [rising, full curve, poor fit]",–
C#CCOCCOCCOCCNc1nc(N2CCN(C(=O)[C@H]([C@@H](C)CC)n3cc(CCCCN)nn3)CC2)nc(N2CCN(C(=O)[C@H](CCCCN)n3cc(CCCC)nn3)CC2)n1,-40,"2.59 µM [falling, full curve]","4.11 µM [falling, full curve, poor fit]"
Cc1nn(CC(=O)N2c3ccccc3NC(=O)C2(C)C)c(C)c1[N+](=O)[O-],71,"20.6 µM [rising, partial curve]","0.231 µM [rising, full curve]"
Cc1cccc(NC(=O)c2cccnc2)c1,–,"18.4 µM [rising, single point]",–
COc1ccc2nc(N3C(=O)CC(Cc4ccc(Cl)cc4)C3=O)sc2c1 (stereo unspecified),24.8,"29.1 µM [rising, single point]",–
CCc1nc(SCC(=O)NCc2ccc(F)cc2)c2c(=O)n(C)c(=O)n(C)c2n1,43.1,–,"0.00461 µM [rising, full curve, poor fit]"
Cc1ccc(-n2nc3c(N4CCC(C(=O)NCCc5ccco5)CC4)nnc(C)c3c2C)cc1,80.2,"0.58 µM [rising, single point]","23.1 µM [rising, single point]"
Cc1ccc(NC(=O)OCc2ccccc2S(C)=O)cc1 (stereo unspecified),-1.43,"0.58 µM [rising, single point]",–
CCOC(=O)C1(Cc2cccc(Cl)c2)CCCN(C(=O)c2cc(CC)on2)C1 (stereo unspecified),–,"4.61 µM [falling, single point]",–
Nc1cccc2c1C(=O)N(CC(=O)NC13CC4CC(CC(C4)C1)C3)C2=O,-40.4,"14.6 µM [falling, partial curve]","8.2 µM [falling, partial curve, poor fit]"
O=C(CCN1C(=O)C2C3C=CC(C3)C2C1=O)N1CCN(c2ccc(F)cc2)CC1 (stereo unspecified),7.23,"23.1 µM [rising, single point]",–

# Full records from above.
# Cc1ccc(C(=O)NN2C(=O)C3C4C=CC([C@@H]3C2=O)C42CC2)cc1 (stereo partly specified) is listed as cell number change [%]: -9.52; AC50 [1]: 2.31 µM [rising, single point]; AC50 [2]: 2.31 µM [falling, single point]
# CCC1=C(C(=O)OC)C(c2cc(OC)ccc2OC)C(C#N)=C(N)O1 (stereo unspecified) is listed as AC50 [1]: 2.31 µM [rising, partial curve]
